Here are results for 2 substances from publication doi:10.1101/481507.

Sequences of proteins named here, by UniProt entry; tags and fusion partners are left off.
UniProt P29352: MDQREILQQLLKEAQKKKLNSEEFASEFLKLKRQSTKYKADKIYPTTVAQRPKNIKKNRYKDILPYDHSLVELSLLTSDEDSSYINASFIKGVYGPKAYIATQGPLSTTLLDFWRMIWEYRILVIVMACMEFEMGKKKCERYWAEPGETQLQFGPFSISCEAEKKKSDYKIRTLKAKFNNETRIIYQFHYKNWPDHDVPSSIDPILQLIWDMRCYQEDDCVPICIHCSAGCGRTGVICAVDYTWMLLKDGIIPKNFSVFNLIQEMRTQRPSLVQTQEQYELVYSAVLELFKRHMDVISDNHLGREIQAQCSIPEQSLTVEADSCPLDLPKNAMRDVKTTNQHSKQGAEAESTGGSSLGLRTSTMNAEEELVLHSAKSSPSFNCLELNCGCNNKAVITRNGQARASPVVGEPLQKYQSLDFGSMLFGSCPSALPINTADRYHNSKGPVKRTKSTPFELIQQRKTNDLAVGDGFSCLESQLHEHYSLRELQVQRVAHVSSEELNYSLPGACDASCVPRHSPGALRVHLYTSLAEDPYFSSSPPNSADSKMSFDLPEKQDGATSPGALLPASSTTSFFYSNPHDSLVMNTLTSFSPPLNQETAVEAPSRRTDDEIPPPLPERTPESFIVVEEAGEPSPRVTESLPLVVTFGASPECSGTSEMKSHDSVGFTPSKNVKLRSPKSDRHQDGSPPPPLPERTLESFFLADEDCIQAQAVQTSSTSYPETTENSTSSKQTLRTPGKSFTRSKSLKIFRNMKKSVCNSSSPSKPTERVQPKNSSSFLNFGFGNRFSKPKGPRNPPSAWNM
UniProt Q15691: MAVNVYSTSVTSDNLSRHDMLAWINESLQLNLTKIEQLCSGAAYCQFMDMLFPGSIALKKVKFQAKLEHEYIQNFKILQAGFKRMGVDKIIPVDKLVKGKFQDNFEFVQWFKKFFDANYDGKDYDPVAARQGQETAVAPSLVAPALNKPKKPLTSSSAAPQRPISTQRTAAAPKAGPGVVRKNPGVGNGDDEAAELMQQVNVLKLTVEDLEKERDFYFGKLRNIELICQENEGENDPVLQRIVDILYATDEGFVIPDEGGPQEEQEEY
UniProt Q61166: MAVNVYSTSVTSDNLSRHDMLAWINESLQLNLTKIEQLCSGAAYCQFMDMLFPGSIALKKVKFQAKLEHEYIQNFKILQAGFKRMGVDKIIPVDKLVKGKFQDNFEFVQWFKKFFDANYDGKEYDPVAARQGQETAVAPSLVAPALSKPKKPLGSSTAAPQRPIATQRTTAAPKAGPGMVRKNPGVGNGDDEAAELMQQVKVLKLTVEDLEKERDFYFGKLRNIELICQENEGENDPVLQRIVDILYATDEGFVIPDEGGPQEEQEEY

These are yes or no findings as the source states them, for the method shown. Binding seen in cells or lysates may run through a third protein. These calls come from enrichment with a bait or labelling near it, and not all partners need be listed.

One assay deals with PTPN22-Flag WT (UniProt P29352). Put plainly: affinity purification with mass spectrometry.
Assay [1] has as its target endogenous PTPN22 (mouse cells) (mouse (endogenous in BI-141 and RAW 264.7)) (UniProt P29352). Put plainly: affinity purification with mass spectrometry.

With “endogenous EB1 (human cells) (from UniProt Q15691 1-268)”, the binding entry in the assay with PTPN22-Flag WT is “binds”.

In the case of “endogenous EB1 (mouse cells) (from UniProt Q61166 1-268)”, the binding result in assay [1] is “binds”.
